The data set deals with OCT1/OCT2 (OCT1/2)-deficient mice. Briefly: Targeted metabolomics / IBC levels in wild-type versus OCT1/2-deficient mice. Type of data set: in vivo, mouse.
Where [1] appears, read: liver, OCT1/2-deficient vs wild-type mice, females.
[2] abbreviates: liver, OCT1/2-deficient vs wild-type mice, males.

With `Nc1nc(=O)c2nc(CNc3ccc(C(=O)N[C@@H](CCC(=O)O)C(=O)O)cc3)cnc2[nH]1` [folic acid], the “Fold-change Female (KO/WT)” value under setting [1] worked out at 1.07. In addition, the “Fold-change Male (KO/WT)” value under setting [2] worked out at 1.67.
On to hydroxyglutaric acid, for which the “Fold-change Female (KO/WT)” value under setting [1] amounted to 0.52. In addition, the “Fold-change Male (KO/WT)” value under setting [2] is recorded as 0.95.
Regarding `Cc1cc2nc3c(=O)[nH]c(=O)nc-3n(C[C@H](O)[C@H](O)[C@H](O)CO)c2cc1C` [riboflavin], the “Fold-change Female (KO/WT)” value under setting [1] is given as 0.89. Besides, the “Fold-change Male (KO/WT)” value under setting [2] was determined as 0.96.
Turning to `NC(N)=O` [urea], the “Fold-change Female (KO/WT)” value under setting [1] was determined as 0.94. The “Fold-change Male (KO/WT)” value under setting [2] is reported as 0.72.
Consider `N=c1c2ncn3c2ncn1[C@@H]1O[C@H](COP(=O)(O)OP(=O)(O)OC[C@H]2O[C@@H]3[C@H](O)[C@@H]2O)[C@@H](O)[C@H]1O` [cADP-ribose], for which, under setting [1], the “Fold-change Female (KO/WT)” value was 0.97. In addition, the “Fold-change Male (KO/WT)” value under setting [2] is reported as 0.89.
On to `NCC(=O)CCC(=O)O` [5-aminolevulinic acid], for which, under setting [1], the “Fold-change Female (KO/WT)” value is reported as 0.80. Besides, the “Fold-change Male (KO/WT)” value under setting [2] turned out to be 0.81.
For `O=P(O)(O)OC[C@H](O)CO` [sn-glycero3-phosphate], under setting [1], the “Fold-change Female (KO/WT)” value worked out at 0.93. Moreover, under setting [2], the “Fold-change Male (KO/WT)” value is given as 1.02.
As to `CC(C)C(=O)O[C@H](CC(=O)[O-])C[N+](C)(C)C` [Isobutyryl-L carnitine, isobutyryl L-carnitine], the “levels in plasma, wild-type mice vs OCT1/2-deficient mice” value (baseline plasma) is on record as “significantly elevated”. Under setting [1], the “Fold-change Female (KO/WT)” value was 2.97. Also, the “Fold-change Male (KO/WT)” value under setting [2] was 5.85. The “hepatic concentration in OCT1/2-deficient mice compared to wild-type mice” value (liver, male and female animals) was “substantially elevated”. For the same compound, under “regardless of mouse genotype”, the “levels in the kidney” value is listed as “negligible”.
In the case of `O=C(O)C(O)Cc1ccccc1` (stereo not shown) [phenyl-lactic acid], the “Fold-change Female (KO/WT)” value under setting [1] turned out to be 1.08. Also, the “Fold-change Male (KO/WT)” value under setting [2] stood at 0.76.
Taken in the same sequence, the figures for `CSCC[C@H](N)C(=O)O` [methionine] were 0.70 and 0.88.
As for `O=C(O)/C=C/C(=O)O` [fumarate], the “Fold-change Female (KO/WT)” value under setting [1] was 1.00. Besides, the “Fold-change Male (KO/WT)” value under setting [2] is reported as 0.73.
As to `NC(=O)c1ccc[n+]([C@@H]2O[C@H](COP(=O)([O-])OP(=O)(O)OC[C@H]3O[C@@H](n4cnc5c(N)ncnc54)[C@H](O)[C@@H]3O)[C@@H](O)[C@H]2O)c1` [NAD], the “Fold-change Female (KO/WT)” value under setting [1] was determined as 0.89. The “Fold-change Male (KO/WT)” value under setting [2] was determined as 0.88.
`Cc1ncc(CO)c(CN)c1O` [pyridoxamine]: the “Fold-change Female (KO/WT)” value under setting [1] was found to be 1.00. Moreover, the “Fold-change Male (KO/WT)” value under setting [2] amounted to 1.00.
With `CC(=O)N[C@@H](C)C(=O)O` [N-acetyl-alanine], under setting [1], the “Fold-change Female (KO/WT)” value is given as 0.88. In addition, the “Fold-change Male (KO/WT)” value under setting [2] was found to be 0.83.
As to `O=C(O)CC(O)C(=O)O` (stereo not shown) [malic acid], the “Fold-change Female (KO/WT)” value under setting [1] turned out to be 0.97. In addition, the “Fold-change Male (KO/WT)” value under setting [2] stood at 0.71.
In the case of `C[N+](C)(C)CCO` [choline], the “Fold-change Female (KO/WT)” value under setting [1] is on record as 0.88. Under setting [2], the “Fold-change Male (KO/WT)” value is 1.02.
As for `NC(=O)c1ncn([C@@H]2O[C@H](CO)[C@@H](O)[C@H]2O)c1N` [AICAR], the “Fold-change Female (KO/WT)” value under setting [1] worked out at 0.69. Also, under setting [2], the “Fold-change Male (KO/WT)” value was 0.78.
As for `Nc1ncnc2c1ncn2[C@@H]1O[C@H](COP(=O)(O)O)[C@@H](O)[C@H]1O` [AMP], the “Fold-change Female (KO/WT)” value under setting [1] is recorded as 0.93. Moreover, under setting [2], the “Fold-change Male (KO/WT)” value turned out to be 0.83.
For `O=C(O)[C@H](O)[C@@H](O)[C@H](O)[C@H](O)CO` [gluconic acid], where the note is “mouse, in vivo”, the “Fold-change Female (KO/WT)” value stood at 0.91 and the “Fold-change Male (KO/WT)” value worked out at 0.79.
Turning to `CN(CC(=O)O)C(=N)N` [creatine], under setting [1], the “Fold-change Female (KO/WT)” value is listed as 0.84. Moreover, under setting [2], the “Fold-change Male (KO/WT)” value is 0.75.
Regarding `CN1CC(=O)NC1=N` [creatinine], the “Fold-change Female (KO/WT)” value under setting [1] stood at 0.75. Besides, under setting [2], the “Fold-change Male (KO/WT)” value was 0.78.
As to `CCCCCCC(N)C(=O)O` (stereo not shown) [2-amino-octanoic acid], under setting [1], the “Fold-change Female (KO/WT)” value amounted to 0.86. In addition, under setting [2], the “Fold-change Male (KO/WT)” value stood at 0.69.
Turning to `NCC(=O)O` [glycine], the “Fold-change Female (KO/WT)” value under setting [1] is recorded as 0.97. Under setting [2], the “Fold-change Male (KO/WT)” value is 0.97.
Take `C[N+](C)(C)CC=O` [betaine aldehyde]: the “Fold-change Female (KO/WT)” value under setting [1] amounted to 2.38. Under setting [2], the “Fold-change Male (KO/WT)” value is 2.82.
The corresponding values for `CC(=O)O[C@H](CC(=O)[O-])C[N+](C)(C)C` [acetyl-carnitine] are 3.42 and 6.90.
Turning to `CC(C)[C@H](N)C(=O)O` [valine], the “Fold-change Female (KO/WT)” value under setting [1] amounted to 0.83. Also, the “Fold-change Male (KO/WT)” value under setting [2] amounted to 0.85.
Take `CSC[C@H]1O[C@@H](n2cnc3c(N)ncnc32)[C@H](O)[C@@H]1O` [S-methyl-5-thioadenosine]: the “Fold-change Female (KO/WT)” value under setting [1] was determined as 0.82. Also, the “Fold-change Male (KO/WT)” value under setting [2] turned out to be 0.74.
Taken in the same sequence, the figures for carnitine-C5 were 1.64 and 2.44.
Consider `O=C(O)[C@@H](O)[C@@H](O)[C@H](O)[C@@H](O)C(=O)O` [glucarate], for which the “Fold-change Female (KO/WT)” value under setting [1] is listed as 0.90. Besides, the “Fold-change Male (KO/WT)” value under setting [2] is recorded as 1.01.
Regarding `CCC(=O)OCC[N+](C)(C)C` [propionylcholine], the “Fold-change Female (KO/WT)” value under setting [1] is listed as 0.37. Further, the “Fold-change Male (KO/WT)” value under setting [2] was 0.52.
The corresponding values for `C[S+](CC[C@H](N)C(=O)[O-])C[C@H]1O[C@@H](n2cnc3c(N)ncnc32)[C@H](O)[C@@H]1O` (stereo partly shown) [S-adenosyl-methionine] are 0.69 and 0.60.
Taken in the same sequence, the figures for `O=c1[nH]cnc2c1ncn2[C@@H]1O[C@H](CO)[C@@H](O)[C@H]1O` [inosine] were 1.04 and 1.03.
Consider carnitine-C14, for which, under setting [1], the “Fold-change Female (KO/WT)” value is 2.66. Under setting [2], the “Fold-change Male (KO/WT)” value is 4.30.
In the case of `NCCCC(=O)O` [y-aminobutyric acid], the “Fold-change Female (KO/WT)” value under setting [1] is 0.85. Further, the “Fold-change Male (KO/WT)” value under setting [2] is on record as 0.98.
Consider `N=C(N)NCCC[C@H](N)C(=O)O` [arginine], for which, for the setting “mouse, in vivo”, the “Fold-change Female (KO/WT)” value is listed as 0.59 and the “Fold-change Male (KO/WT)” value is recorded as 0.35.
As to `NC(=O)OP(=O)(O)O` [carbamoylphosphate], the “Fold-change Female (KO/WT)” value under setting [1] turned out to be 0.84. Also, the “Fold-change Male (KO/WT)” value under setting [2] was determined as 0.83.
As to `Cc1ncc(CO)c(C(=O)O)c1O` [4-pyridoxic acid], the “Fold-change Female (KO/WT)” value under setting [1] worked out at 0.84. For the same compound, the “Fold-change Male (KO/WT)” value under setting [2] is given as 0.63.
As for `CC(C)(CO)[C@@H](O)C(=O)NCCC(=O)O` [pantothenic acid], under setting [1], the “Fold-change Female (KO/WT)” value is 0.93. Besides, the “Fold-change Male (KO/WT)” value under setting [2] is recorded as 0.57.
Taken in the same sequence, the figures for `CC(O)C(=O)O` (stereo not shown) [lactate] were 0.85 and 0.87.
Turning to `NC(CCCC(=O)O)C(=O)O` (stereo not shown) [aminoadipic acid], under setting [1], the “Fold-change Female (KO/WT)” value is 0.58. The “Fold-change Male (KO/WT)” value under setting [2] amounted to 0.48.
Take G6P-F6P: under setting [1], the “Fold-change Female (KO/WT)” value was determined as 0.91. In addition, the “Fold-change Male (KO/WT)” value under setting [2] was 0.81.
Take `Cn1cnc2c(ncn2[C@@H]2O[C@H](CO)[C@@H](O)[C@H]2O)c1=N` [1-methyl-adenosine]: the “Fold-change Female (KO/WT)” value under setting [1] is 0.81. The “Fold-change Male (KO/WT)” value under setting [2] is listed as 0.85.
For `Nc1nc2c(ncn2[C@@H]2O[C@H](COP(=O)(O)O)[C@@H](O)[C@H]2O)c(=O)[nH]1` [GMP], the “Fold-change Female (KO/WT)” value under setting [1] worked out at 0.81. The “Fold-change Male (KO/WT)” value under setting [2] worked out at 0.76.
As for `O=P(O)(O)O[C@H]1O[C@H](CO)[C@H](O)[C@H](O)[C@H]1O` [galactose 1-phosphate], the “Fold-change Female (KO/WT)” value under setting [1] was determined as 0.94. In addition, the “Fold-change Male (KO/WT)” value under setting [2] is given as 0.81.
As to `O=c1ccn([C@@H]2O[C@H](COP(=O)(O)O)[C@@H](O)[C@H]2O)c(=O)[nH]1` [UMP], under setting [1], the “Fold-change Female (KO/WT)” value is 0.70. In addition, the “Fold-change Male (KO/WT)” value under setting [2] came out at 0.82.
For `Nc1ccn([C@H]2C[C@H](O)[C@@H](CO)O2)c(=O)n1` [2-deoxycytidine], the “Fold-change Female (KO/WT)” value under setting [1] turned out to be 0.88. In addition, the “Fold-change Male (KO/WT)” value under setting [2] is recorded as 0.44.
For the compound `Nc1ncnc2c1ncn2[C@@H]1O[C@H](CO)[C@@H](O)[C@H]1O` [adenosine], under setting [1], the “Fold-change Female (KO/WT)” value amounted to 0.93. Further, the “Fold-change Male (KO/WT)” value under setting [2] amounted to 0.73.
On to `Nc1ccn([C@@H]2O[C@H](COP(=O)(O)O)[C@@H](O)[C@H]2O)c(=O)n1` [CMP], for which the “Fold-change Female (KO/WT)” value under setting [1] turned out to be 0.86. Moreover, the “Fold-change Male (KO/WT)” value under setting [2] is recorded as 0.88.
Taken in the same sequence, the figures for `Nc1nc2c(ncn2[C@@H]2O[C@H](CO)[C@@H](O)[C@H]2O)c(=O)[nH]1` [guanosine] were 0.93 and 0.80.
Consider `CCCCCCCCCCCC(=O)O[C@H](CC(=O)[O-])C[N+](C)(C)C` [carnitine-C12], for which the “Fold-change Female (KO/WT)” value under setting [1] was found to be 3.25. Besides, the “Fold-change Male (KO/WT)” value under setting [2] stood at 5.83.
Regarding `c1ccc2[nH]ccc2c1` [indole], where the note is “mouse, in vivo”, the “Fold-change Female (KO/WT)” value is listed as 0.66 and the “Fold-change Male (KO/WT)” value worked out at 0.94.
With `NC(=O)CC[C@H](N)C(=O)O` [glutamine], under setting [1], the “Fold-change Female (KO/WT)” value stood at 1.18. In addition, under setting [2], the “Fold-change Male (KO/WT)” value was determined as 0.97.
Consider SDMA-ADMA, for which, under setting [1], the “Fold-change Female (KO/WT)” value came out at 0.95. In addition, the “Fold-change Male (KO/WT)” value under setting [2] is reported as 0.71.
